Measurements: PMC3743044

T1: GST-tagged Pak3 Cdc42 binding domain (GST-Pak3BD) (mouse) (UniProt Q61036)
T1 sequence: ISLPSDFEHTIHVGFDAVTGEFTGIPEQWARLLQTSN


Key:
[1] = biological target: T1, GST-tagged Pak3 Cdc42 binding domain (GST-Pak3BD) (mouse); experiment: ELISA; 10 μg/ml GST-Pak3BD immobilised on MaxiSorp; 0.35 μM 6×His-Cdc42 (with or without TGM2/HA), preloaded with GMP-PNP, GDP or GTP, added with 0.2 μM GST-p50RhoGAPΔ in interaction buffer, 30 min at 30 °C; detected with 5×His antibody and TMB; both purified
6×His-Cdc42 (mouse) = experiment: pull-down; 6 μM 6×His-Cdc42 pre-treated with GMP-PNP, GDP, GTP or GTP + TGM2/HA, 5 mM MgCl2 and 0.2 μM GST-p50RhoGAPΔ, 15 min 37 °C; 40 nM GST-Pak3BD added with Ni-NTA magnetic agarose beads in interaction buffer, at least 4 h at 4 °C; immunoblot; both purified

Row | binding [1] | binding (6×His-Cdc42 (mouse)) | Molecule
1 | binds |  | 6×His-Cdc42 (mouse)
2 |  | binds | ISLPSDFEHTIHVGFDAVTGEFTGIPEQWARLLQTSN (domain or fragment, UniProt Q61036-2 70-106) [GST-tagged Pak3 Cdc42 binding domain (GST-Pak3BD)]

No constants are given. Whether binding was seen depends on the method and setting. Binding calls can cover weak binding; strength is not graded here. Tags and fused reporters may be left off the sequences shown.
